Among the data in patent US20170198014A1, “POLYPEPTIDES AND THEIR USE FOR TREATING INFLUENZA” ([…] ITS CENTER FOR COMMERCIALIZATION, priority 2014, published 2017) are binding values, retold here.

Numbering of substitutions follows the chain as printed. No constants are given. Whether binding was seen depends on the method and setting. Some results given as binding are weak or reduced against the parent protein; the word gives no strength. Where a sequence is shown, tags or fusion partners need not be part of it.

To fix the notation:
B1: Hsc1-EA, monomeric version (designed binder)
chain: GIVNVPNCNTTKYQQLARTAVAIYNYHEQAHLTFVENLNCKEQGNYYYITLAATDDAGKKAIYEAKIGVVESAGWTGVEEFKLV
B2: Hsc1-3357EA, monomeric version (designed binder)
chain: B1 chain with C8P, T33C, C40V, T54C
B3: HAA.1 c fused to Hsc1-EA via a triLong linker, trimer (designed binder)
chain: MEEVVLITVPSEEVARTIAKALVEERLAACVNIVPGLTSIYRWQGEVVEDQELLLLVKTTTHAFPKLKERVKALHPYTVPEIVALPIAQGNQEYLDWLRENAGGGGSGGSGIVNVPNCNTTKYQQLARTAVAIYNYHEQAHLTFVENLNCKEQGNYYYITLAATDDAGKKAIYEAKIGVVESAGWTGVEEFKLV

The target of this experiment is hemagglutinin H3 (A/Hong Kong/1/1968-H3N2) (influenza A virus A/Hong Kong/1/1968 (H3N2)) (UniProt Q91MA7). Kind of experiment: BLI (FIG. 5).
B1: the binding result is “binds”. Then B2, with “binds”; and B3, with “binds”.
